Structures are written as SMILES. The structures given here were assigned with low confidence; some may be wrong.

One experiment addresses α5β3γ2 GABAA/BzR (Homo sapiens, UniProt P18507+P31644). Put plainly: Competition binding to HEK cell membranes, α5β3γ2. To be noted: read-out: Ki α5.
In a further experiment the target is α1β3γ2 GABAA/BzR (Homo sapiens, UniProt P14867+P18507). Put plainly: Competition binding to HEK cell membranes, α1β3γ2. To be noted: read-out: Ki α1.
The target of another experiment is α2β3γ2 GABAA/BzR (Homo sapiens, UniProt P18507+P47869). Put plainly: Competition binding to HEK cell membranes, α2β3γ2. The note with it: read-out: Ki α2.
A further experiment has as its target α3β3γ2 GABAA/BzR (Homo sapiens, UniProt P18507+P34903). As to the kind of experiment: Competition binding to HEK cell membranes, α3β3γ2. The note with it: read-out: Ki α3.

What is called Ki is the equilibrium dissociation constant of an inhibitor or competing ligand from its target. As for `C[Si](C)(C)C#Cc1ccc2c(c1)C(c1ccccc1Cl)=NCC(=O)N2` [XLi343], the Ki was 150 nM at α5β3γ2 GABAA/BzR, 6.38 nM at α1β3γ2 GABAA/BzR and 17.7 nM on α2β3γ2 GABAA/BzR.
`C[Si](C)(C)C#Cc1ccc2c(c1)C(c1ccccc1Cl)=NCC(=O)N2` [XLI-348]: the Ki on α3β3γ2 GABAA/BzR was found to be 1.58 nM; at α5β3γ2 GABAA/BzR it was 82 nM; on α1β3γ2 GABAA/BzR, 13.6 nM; on α2β3γ2 GABAA/BzR, 11.2 nM.

Values taken from PMC4657098, “A Review of the Updated Pharmacophore for the Alpha 5 GABA(A) Benzodiazepine Receptor Model” (International Journal of Medicinal Chemistry, 2015).
